Literature values as cited in patent publication US10894017B1 (XSPRAY PHARMA AB, priority 2019, dated 2021).
For at least one compound, name, drawing or mass did not settle the structure.

Test system: BCR-ABL, SRC family (SRC, LCK, YES, FYN), c-KIT, EPHA2, and PDGFRβ

Question: For Cc1nc(Nc2ncc(C(=O)Nc3c(C)cccc3Cl)s2)cc(N2CCN(CCO)CC2)n1 [dasatinib], which “concentrations at which the kinases are inhibited” value is on record?
Answer: nanomolar concentrations
